Screen size: about 580,000 compounds; about 6,100 (1.1%) were called active. Inconclusive results, whose numbers are uncertain, are shown with a selection of clear calls. Calls follow the shape of the dose curve; as a rule, active = well fitted inhibition curve with a large enough effect; inconclusive = small, poorly fitted or top-dose-only effect, or another doubt; inactive = no such curve, though single readings can be large or run the other way. Potencies beside an inconclusive call are fits to weak or partial responses and may not hold up.
Molecular target: Polyunsaturated fatty acid lipoxygenase ALOX12 (Homo sapiens) (UniProt P18054)
Experiment: Primary qHTS assay for inhibitors of human arachidonate 12S-lipoxygenase (ALOX12): Round 2
Details: purified 12hLO, xylenol orange hydroperoxide absorbance; activity change, negative = inhibition: at 108 µM (top of the series) unless noted
Method in brief: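 Hydroperoxide product was detected by ferrous iron/xylenol orange as the 573 to 405 nm absorbance ratio. Arachidonic acid at 40 uM (final) was turned over for 30 min at room temperature by 150 nM human 12hLO, pH 7.0 Hepes buffer, after 15 min compound preincubation.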
% is scaled to controls: 0 for no effect and ±100 for the full control effect; potency is read from the fitted curve at half-maximal effect.

By UniProt entry, the sequences of proteins in these tests, tags left out. Where a name states a change or a piece, a line headed by the entry shows the natural chain unless it says otherwise.
UniProt P18054: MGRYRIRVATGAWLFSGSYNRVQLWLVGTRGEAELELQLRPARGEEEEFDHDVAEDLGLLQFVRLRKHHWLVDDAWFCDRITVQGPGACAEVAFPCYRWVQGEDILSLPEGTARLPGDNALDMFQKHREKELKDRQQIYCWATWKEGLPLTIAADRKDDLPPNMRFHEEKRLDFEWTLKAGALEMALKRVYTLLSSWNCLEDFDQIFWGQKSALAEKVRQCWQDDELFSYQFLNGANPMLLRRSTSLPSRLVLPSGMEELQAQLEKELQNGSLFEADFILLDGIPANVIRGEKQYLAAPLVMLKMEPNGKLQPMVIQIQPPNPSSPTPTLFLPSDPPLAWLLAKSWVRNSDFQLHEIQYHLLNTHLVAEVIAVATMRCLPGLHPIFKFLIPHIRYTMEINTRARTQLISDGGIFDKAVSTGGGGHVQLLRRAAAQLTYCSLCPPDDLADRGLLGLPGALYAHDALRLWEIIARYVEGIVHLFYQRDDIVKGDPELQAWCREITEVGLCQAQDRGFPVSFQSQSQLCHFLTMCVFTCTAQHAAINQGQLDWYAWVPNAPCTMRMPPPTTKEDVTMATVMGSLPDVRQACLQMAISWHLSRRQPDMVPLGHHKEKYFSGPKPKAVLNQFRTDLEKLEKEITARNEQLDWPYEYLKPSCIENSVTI

How did the Potency turn out when `O=C(CCl)N(CC1=CCSC1)c1ccccc1` was run?
Its Potency is inconclusive: 31.6 µM [inhibitor, full curve, poor fit].

With `COc1ccc(C(=O)[C@H]2[C@H]3C(=O)N(c4ccccc4)C(=O)[C@H]3C3C=CC=NN32)cc1` (some centres undefined) as the compound, how does the Potency read?
The Potency was inconclusive: 35.5 µM [inhibitor, partial curve].

With `S=c1[nH]nc(C2CCCCC2)o1` as the compound, how does the Potency read?
The Potency was inconclusive: 79.4 µM [inhibitor, partial curve, poor fit].

With `CSc1ccc(-c2nc3cnccn3c2Nc2ccc3c(c2)OCCO3)cc1` as the compound, how does the Potency read?
Its Potency is inconclusive: 35.5 µM [inhibitor, partial curve, poor fit].

For `CCCCCC(=O)N1C[C@@H](O)[C@H](n2cc(COC(=O)c3ccccc3)nn2)C[C@@H]1c1ccccc1`, which Potency is on record?
Its Potency is inconclusive: 44.7 µM [inhibitor, partial curve, poor fit].

How did the “activity change, negative = inhibition” value turn out when `Cc1c(C(=O)N2CCC(C)CC2)c(S(=O)(=O)NCc2ccc(F)cc2)c(C)n1C` was run?
The value was inactive: -0.143%.

Which “activity change, negative = inhibition” value does the source give for `Cc1ccc(NC(=S)c2nc3ccccc3[nH]2)c(C)c1` here?
The value was inactive: -19.6%.

Which “activity change, negative = inhibition” value does the source give for `CCC(CC)NCc1cccc(Oc2ccccc2)c1` here?
Its value is inactive: -51.3%.

With `O=c1cc(O)nc(-c2ccccc2)s1` as the compound, how does the Potency read?
The Potency was inconclusive: 44.7 µM [inhibitor, partial curve, poor fit].

`O=C1CCCN1CCCNc1ncnc2c1[nH]c1ccc(Cl)cc12` was tested. Which “activity change, negative = inhibition” value did it give?
Its value is inactive: 6.83%.

How did the Potency turn out when `C/C(=N\Nc1nc(-c2ccc(C)cc2C)cs1)c1cc2ccccc2oc1=O` was run?
Its Potency is inconclusive: 44.7 µM [inhibitor, partial curve, poor fit].

For `CC(C)N(Cc1ccccc1)C(=O)c1ccc2nsnc2c1`, which “activity change, negative = inhibition” value is on record?
The value was inactive: -25.4%.

With `Cc1nnc(NC(=O)CC[C@H]2NC(=O)c3ccccc3NC2=O)s1` as the compound, how does the “activity change, negative = inhibition” value read?
The value was inactive: 4.34%.

With `CCc1cccc(OC2CN(C(=O)C3CCCN(CC(N)=O)C3)C2)c1` (centres undefined) as the compound, how does the Potency read?
Its Potency is inconclusive: 1.58 µM [inhibitor, full curve].

For `CC(C)ON(CC(=O)NO)S(=O)(=O)c1ccc(-c2ccccc2)cc1`, which Potency is on record?
Its Potency is inconclusive: 22.4 µM [inhibitor, partial curve, poor fit].

`COc1cccc(C2c3[nH]c4ccccc4c3C[C@H]3C(=O)N(CCCO)CC(=O)N23)c1OC` (some centres undefined) was tested. Which Potency did it give?
The Potency was inconclusive: 112 µM [inhibitor, single point].

For `Cc1ccc(-n2nc(C)c3c(C(=O)O)cc(C)nc32)cc1`, which Potency is on record?
The Potency was inconclusive: 158 µM [inhibitor, partial curve, poor fit].

How did the Potency turn out when `O=C(CN1CCCSc2ccccc21)N1CCN(S(=O)(=O)c2ccccc2)CC1` was run?
The Potency was inconclusive: 63.1 µM [inhibitor, partial curve, poor fit].

With `Cc1cc(C(=O)N2CCC(c3nccn3Cc3ccncc3)CC2)c(C)o1` as the compound, how does the “activity change, negative = inhibition” value read?
The value was inactive: 15.3%.

How did the “activity change, negative = inhibition” value turn out when `CCN1C(=O)COC[C@@H]1[C@H](O)c1ccc(NC(=O)c2ccco2)cc1` was run?
The value was inactive: 5.45% [at 176 µM].

For `COc1cc(/C=N/NC(=O)c2c(C)nc3ccc(Cl)cn23)cc(OC)c1OC`, which Potency is on record?
Its Potency is inconclusive: 4.47 µM [inhibitor, full curve, poor fit].

For `CCN1C(=O)C2(CCN(S(=O)(=O)Cc3ccccc3Cl)CC2)c2ccccc21`, which Potency is on record?
The Potency was inconclusive: 5.01 µM [inhibitor, full curve].

With `CCN(C(=O)COC(=O)c1ccc2ccccc2n1)c1ccccc1` as the compound, how does the Potency read?
Its Potency is inconclusive: 89.1 µM [inhibitor, partial curve, poor fit].

For `CCN(CC)S(=O)(=O)c1ccc(C(=O)Nc2cc(S(=O)(=O)N3CCOCC3)ccc2O)cc1`, which Potency is on record?
The Potency was inconclusive: 79.4 µM [inhibitor, single point].

With `CCc1nnc(NC(=S)Nc2ccccc2)s1` as the compound, how does the Potency read?
Its Potency is inconclusive: 5.62 µM [inhibitor, full curve].

How did the Potency turn out when `CCCCOC(=O)C1CN(c2ccccc2)N=C1C(C)=O` (centres undefined) was run?
Its Potency is inconclusive: 35.5 µM [inhibitor, partial curve, poor fit].

For `CC(C)Oc1ccc(Br)cc1/C=N\NC(N)=S`, which Potency is on record?
The Potency was active: 39.8 µM.

Which “activity change, negative = inhibition” value does the source give for `CCNS(=O)(=O)c1cccc(C(=O)N2CCCC2c2ccc(OCC)cc2)c1` (centres undefined) here?
The value was inactive: 21.3%.

With `O=C1Nc2ccccc2-n2nnnc2C1N1CCN(c2ccc(C(F)(F)F)cn2)CC1` (centres undefined) as the compound, how does the Potency read?
Its Potency is inconclusive: 126 µM [inhibitor, single point].

For `Cc1ccc(Cn2c(C(=O)O)cc3sccc32)cc1`, which “activity change, negative = inhibition” value is on record?
The value was inactive: -9.89%.

`Cc1cc2cc(CNC(=O)NC3CCCCC3)ccc2n1C` was tested. Which Potency did it give?
The Potency was inconclusive: 25.1 µM [inhibitor, partial curve, poor fit].

With `Cc1ccc(N2C(=O)c3ccccc3C2=O)cc1` as the compound, how does the “activity change, negative = inhibition” value read?
Its value is inactive: 0%.

Which “activity change, negative = inhibition” value does the source give for `O=C(NCCc1ccccc1)N1CCC2(CC1)CC(N1CCOCC1)CCO2` (centres undefined) here?
Its value is inactive: 18.5%.

With `Cc1cc(SCC(=O)Nc2cccnc2Cl)nc2ccccc12` as the compound, how does the Potency read?
Its Potency is inconclusive: 44.7 µM [inhibitor, partial curve, poor fit].

With `CCN(CC)c1ccc(NS(=O)(=O)c2ccc(-c3coc(C)n3)cc2)c(C)c1` as the compound, how does the Potency read?
The Potency was inconclusive: 44.7 µM [inhibitor, partial curve, poor fit].

For `Cc1ccc(Oc2nc3ccccn3c(=O)c2/C=C(\C#N)c2nc3ccccc3s2)c(C)c1`, which Potency is on record?
The Potency was active: 3.98 µM.

`CCn1c(C)cc(C(=O)CSc2nnc(CN3CCOCC3)n2-c2ccccc2)c1C` was tested. Which Potency did it give?
The Potency was inconclusive: 35.5 µM [inhibitor, full curve, poor fit].

How did the Potency turn out when `COc1ccccc1CNC(=S)NCc1ccc(F)cc1` was run?
The Potency was inconclusive: 44.7 µM [inhibitor, partial curve].

For `Cc1nn(C)c2c1c(C(F)(F)F)cc(=O)n2CC(=O)N1CCN(c2ccccc2F)CC1`, which Potency is on record?
The Potency was inconclusive: 112 µM [inhibitor, partial curve, poor fit].

`CCn1nc(C(=O)Nc2ccccc2N2CCCC2)c2ccccc2c1=O` was tested. Which Potency did it give?
Its Potency is inconclusive: 100 µM [inhibitor, single point].

`O=C(CSc1ncc(-c2ccc(Br)cc2)o1)N1CCCCC1` was tested. Which “activity change, negative = inhibition” value did it give?
Its value is inactive: -11.7%.

`CCC(C)c1ccc(NC(=S)Nc2ccc(OC)c(OC)c2)cc1` (centres undefined) was tested. Which Potency did it give?
Its Potency is inconclusive: 39.8 µM [inhibitor, partial curve, poor fit].

Which Potency does the source give for `Cc1ccc(C2C(C#N)=C(N)N(c3cccnc3)C3=C2C(=O)CCC3)s1` (centres undefined) here?
Its Potency is inconclusive: 39.8 µM [inhibitor, partial curve].

For `CC(=O)N1CCc2c(sc3c2c(=O)n(-c2cccc(Cl)c2)c(=O)n3Cc2ccc(F)cc2Cl)C1`, which Potency is on record?
The Potency was inconclusive: 56.2 µM [inhibitor, partial curve, poor fit].

From PubChem BioAssay AID1671190 (National Center for Advancing Translational Sciences (NCATS), 2021)
